Data published in publication PMC9612824.
Results are given in words; binding and its absence hold for the method and conditions named. In cells and extracts the contact can be indirect. Binding can be weak; no strength is given.

Amino acid sequences for entries named in this document (tags omitted).
UniProt Q10658: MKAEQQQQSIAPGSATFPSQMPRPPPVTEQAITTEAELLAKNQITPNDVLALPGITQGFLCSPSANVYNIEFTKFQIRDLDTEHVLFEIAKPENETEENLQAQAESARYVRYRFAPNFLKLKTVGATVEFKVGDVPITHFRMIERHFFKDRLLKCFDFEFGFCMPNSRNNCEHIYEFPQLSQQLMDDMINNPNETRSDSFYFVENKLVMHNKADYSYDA

Target: 3xFLAG-UNC-119-MYC (C. elegans) (UniProt Q10658)
Test: co-IP; HEK293T co-transfected with TIAM-1N539 (HA) and 3xFLAG-UNC-119-MYC; lysis buffer 50mM Tris-Base, 150mM NaCl, 1% IGEPAL CA-630, pH 7.4; anti-FLAG M2 Affinity Gel at 4°C overnight; blots with anti-HA and anti-FLAG

binding: binds
Substance: TIAM-1N539 (N-terminal fragment of TIAM-1, tagged with HA) (from UniProt O01847) (domain or fragment)
